Literature values in US10947260B2, “Phosphinolactone derivatives and pharmaceutical uses thereof” (INSTITUT NATIONAL DE LA SANTE ET DE LA RECHERCHE MEDICALE …, priority 2016, dated 2021).

Tested on: mice treated with Aβ25-35
Settings: mouse, in vivo, ip; cited from earlier work

For `COc1cc2c(cc1OC)C(=O)C(CC1CCN(Cc3ccccc3)CC1)C2` (stereo not shown) [donepezil], the “active dose of reference molecules in this model” value is listed as 0.5 mg/kg.
